This is one part of the list.
The compounds below were run on T1, CTL2-GFP (C. trachomatis L2/434/Bu, GFP-expressing). Conditions: bulk GFP, single well; 28.5 h, 10 µM; inhibitor.
T1 construct: L2/434/Bu, GFP-expressing
Set-up: species or system HeLa; Intracellular C. trachomatis growth in HeLa cells, bulk GFP fluorescence relative to DMSO

Row | SMILES | % of control remaining
1 | CS(=O)(=O)Nc1cccc(C2=NN(C(=O)CCC(=O)O)C(c3cccc(F)c3)C2)c1 (stereo not shown) [CBK268804] | 160.368%
2 | O=S(=O)(NCc1cccc(Cl)c1)c1csc2ccnc(N3CCNCC3)c12 [CBK045595C] | 135.16%
3 | CCn1c(CC2CCN(C(=O)CCn3cc(C)cn3)CC2)nn(C)c1=O [CBK307584] | 145.624%
4 | Cc1ccccc1-c1ccccc1CC1(C(N)=O)CCN(C(=O)c2cccc(F)c2)CC1 [CBK285726] | 119.405%
5 | CC(C)c1ccc(S(=O)(=O)N2CCN(c3ccc(C#N)cc3)CC2)cc1 [CBK044404] | 61.6819%
6 | CCCS(=O)(=O)NC(C)c1cnn(-c2ccc(OC)cc2)c1C (stereo not shown) [CBK307319] | 100.305%
7 | CCCc1nn(CC(=O)NC2CC2)c(=O)c2cc3ccsc3n12 [CBK284146] | 111.237%
8 | O=C(Cc1c[nH]c2ccccc12)N1CCC2(CCN(C(=O)c3ccc4[nH]c(=O)[nH]c4c3)C2)C1 (stereo not shown) [CBK131452] | 100%
9 | O=C(NCc1cccnc1)C1CCCN(c2nc3c(-c4ccccc4)csc3c(=O)[nH]2)C1 (stereo not shown) [CBK215492] | 88.9283%
10 | Cc1cc(C(=O)Nc2sc(C)c(C)c2C(=O)NCc2cccnc2)no1 [CBK268134] | 98.1672%
11 | CN1CCN(CCC(=O)N/N=C/c2ccsc2)CC1 [CBK261505] | 100%
12 | CCOc1cc2c(cc1OCC)C(c1ccc(OC)c(O)c1)NCC2 (stereo not shown) [CBK074443C] | 119.375%
13 | Cc1noc(C)c1S(=O)(=O)NCc1ccc(C(F)(F)F)c(F)c1 [CBK062112] | 91.0986%
14 | COc1ccc(CCN2C(=O)N[C@@H](CCC(=O)NC3CC3)C2=O)cc1 [CBK288001] | 85.7098%
15 | COc1ccccc1CN(CC(C)(C)CN)C(=O)Nc1ccc(C)c([N+](=O)[O-])c1 [CBK026816C] | 126.432%
16 | COc1ccc(Nc2cc(-c3cccc(N)c3)ncn2)c(C)c1 [CBK091035] | 137.73%
17 | COc1cccc(CNCCN2CCOCC2)c1O [CBK278183C] | 124.398%
18 | CC(O)CNc1nccnc1-c1cccc(CO)c1 (stereo not shown) [CBK037056] | 100%
19 | Nc1nncn1C(=O)c1ccccc1SCc1ccccc1 [CBK270120] | 140.513%
20 | O=C1CCCN1CCCNc1nccnc1-c1ccc(CO)cc1 [CBK036860] | 119.855%

In a second layout: entries from further up
Row	SMILES	% of control remaining
1	CS(=O)(=O)Nc1cccc(C2=NN(C(=O)CCC(=O)O)C(c3cccc(F)c3)C2)c1 (stereo not shown) [CBK268804]	160.368%
2	O=S(=O)(NCc1cccc(Cl)c1)c1csc2ccnc(N3CCNCC3)c12 [CBK045595C]	135.16%
6	CCCS(=O)(=O)NC(C)c1cnn(-c2ccc(OC)cc2)c1C (stereo not shown) [CBK307319]	100.305%
10	Cc1cc(C(=O)Nc2sc(C)c(C)c2C(=O)NCc2cccnc2)no1 [CBK268134]	98.1672%
11	CN1CCN(CCC(=O)N/N=C/c2ccsc2)CC1 [CBK261505]	100%
12	CCOc1cc2c(cc1OCC)C(c1ccc(OC)c(O)c1)NCC2 (stereo not shown) [CBK074443C]	119.375%
13	Cc1noc(C)c1S(=O)(=O)NCc1ccc(C(F)(F)F)c(F)c1 [CBK062112]	91.0986%
14	COc1ccc(CCN2C(=O)N[C@@H](CCC(=O)NC3CC3)C2=O)cc1 [CBK288001]	85.7098%
20	O=C1CCCN1CCCNc1nccnc1-c1ccc(CO)cc1 [CBK036860]	119.855%

(listing goes on)

Row | SMILES | % of control remaining
21 | COc1ccc(NC(=O)Nc2cc3cccnc3c(Br)n2)c(C)c1 [CBK063294] | 100%
22 | Cc1nnc(Sc2cccc(C(F)(F)F)n2)s1 [CBK115222] | 100%
23 | CC(=O)N1CCOC(CNc2nc(C(C)(C)C)nc3c2cnn3C)C1 (stereo not shown) [CBK307469] | 118.953%
24 | CCCCNc1cc(C)nc2c(-c3ccccc3)cnn12 [CBK287792] | 95.7863%
25 | CC(C)(C)OC(=O)N1CCC(OCc2cn(-c3ccc(S(C)(=O)=O)cc3)nn2)CC1 [CBK149478] | 114.061%
26 | O=C(O)/C=C/C(=O)NNC(=O)c1ccccc1O [CBK261789] | 122.952%
27 | OCCC1CCCCN1c1cncc(C2CCOC2)n1 (stereo not shown) [CBK066127] | 101.318%
28 | O=S(=O)(c1csc2ccccc12)N1CCOCC1 [CBK062401] | 118.858%
29 | Cc1cc(C)c2sc(NC(=O)c3ccccc3)nc2c1 [CBK287614] | 127.058%
30 | Cn1cncc1CN(CCCn1ccnc1)Cc1ccccc1F [CBK282960] | 125.117%
31 | N=C(N)Nc1nc(-c2ccccc2)c2cc(F)ccc2n1 [CBK267350] | 42.6236%
32 | O=C(Nc1ccc(O)cc1C(=O)O)c1ccc2c(c1)C(=O)N(Cc1ccco1)C2=O [CBK267418] | 91.7412%
33 | CC(=O)OCC(=O)N1CCC(N(C)Cc2ccc(-c3ccc(S(C)(=O)=O)cc3)nc2)CC1 [CBK165268] | 98.7723%
34 | O=C(Cc1c[nH]c2ccccc12)N1CCC2(CCCN(Cc3c(F)cccc3F)C2)C1 (stereo not shown) [CBK132031] | 124.753%
35 | O=C(OCc1ccccc1)N1CCN(C(=O)c2cc3cc(Br)ccc3[nH]2)CC1 [CBK154991] | 88.0275%
36 | O=C(NCc1cccc2ccccc12)N1CCCCC1CO (stereo not shown) [CBK156167] | 109.197%
37 | COc1cc(C)c(Cl)cc1S(=O)(=O)NCCCN1CCOCC1 [CBK269044] | 119.239%
38 | Cc1nn(-c2ccc(F)cc2)c2[nH]c(=O)c(CNC(C)(C)C)cc12 [CBK283120] | 105.645%
39 | COc1ccc(-c2nnc3c4ccccc4c(C)nn23)cc1S(=O)(=O)NC(C)c1ccccc1 (stereo not shown) [CBK266605] | 163.996%
40 | Cc1cccc(C)c1NC(=O)CC(CN1CCN(Cc2c(C)noc2C)CC1)C(=O)O (stereo not shown) [CBK286715] | 120.411%
